Numbering of substitutions follows the chain as printed. These are yes or no findings as the source states them, for the method shown. Some entries that bind do so weakly or less than the wild type. Where a sequence is shown, tags or fusion partners need not be part of it. Values belong to the molecule of their own block, whether it stands above or below them.
Legend:
[1] = target: T1, IFT43 W174R with a GFP tag at the C-terminus (human) (UniProt Q96FT9); assay: SEC; FSEC of lysate of HEK293F cells co-expressing the IFT-A subunits, GFP fluorescence of IFT43-GFP monitored; with or without LMNG/CHS added to the lysate; running buffer 20 mM Tris-HCl pH 8.0, 200 mM NaCl, 2 mM DTT, 0.004% LMNG/CHS
T1 sequence: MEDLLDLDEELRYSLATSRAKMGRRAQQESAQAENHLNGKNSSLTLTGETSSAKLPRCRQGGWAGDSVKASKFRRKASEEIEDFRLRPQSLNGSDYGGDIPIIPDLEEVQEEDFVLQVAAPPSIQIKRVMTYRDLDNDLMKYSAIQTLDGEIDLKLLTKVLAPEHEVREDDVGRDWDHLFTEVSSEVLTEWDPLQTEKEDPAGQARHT

[2] = target: T2, IFT43 W174S with a GFP tag at the C-terminus (human) (UniProt Q96FT9); assay: as above
T2 sequence: T1 sequence with R174S

[3] = target: T3, IFT43 with a GFP tag at the C-terminus (human) (UniProt Q96FT9); assay: as above
T3 sequence: T1 sequence with R174W

[4] = target: T3, IFT43 with a GFP tag at the C-terminus (human); assay: affinity co-purification (GFP nanobody beads) and SEC; IFT-A (-IFT140) co-expressed in HEK293F, captured by the GFP on IFT43, GFP cleaved, Superose 6
[5] = target: T4, GST-tagged TULP3 WT (human) (UniProt O75386); assay: pull-down; 10 ug GST-TULP3 variant on GST beads, 330 ug IFT-A in solution; 20 mM Tris-HCl pH 8.0, 70 mM or 100 mM NaCl, 2 mM DTT, 4 °C, 2 h; Coomassie-stained SDS-PAGE; both purified
T4 sequence: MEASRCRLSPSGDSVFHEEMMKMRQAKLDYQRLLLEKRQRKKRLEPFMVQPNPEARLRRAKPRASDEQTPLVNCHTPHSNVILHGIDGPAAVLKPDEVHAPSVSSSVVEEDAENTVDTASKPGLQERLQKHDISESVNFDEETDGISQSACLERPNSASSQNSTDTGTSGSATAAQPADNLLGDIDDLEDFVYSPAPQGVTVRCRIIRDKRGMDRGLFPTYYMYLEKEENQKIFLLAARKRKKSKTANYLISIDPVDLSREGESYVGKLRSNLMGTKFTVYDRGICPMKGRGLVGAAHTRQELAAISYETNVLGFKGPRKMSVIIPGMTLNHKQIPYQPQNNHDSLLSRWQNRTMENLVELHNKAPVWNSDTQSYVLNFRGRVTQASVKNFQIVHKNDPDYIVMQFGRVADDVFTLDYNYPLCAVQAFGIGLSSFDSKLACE

IFT121 (WDR35) (human) = target: T5, IFT121 (WDR35) (human) (UniProt Q9P2L0); assay: cryo-EM structure; IFT-A complex co-expressed in HEK293F and co-purified; composite map from the IFT-A and IFT-A (-IFT139) datasets; 20 mM Tris-HCl pH 8.0, 200 mM NaCl, 2 mM DTT, 2 mM FFC-8 added; both purified
T5 sequence: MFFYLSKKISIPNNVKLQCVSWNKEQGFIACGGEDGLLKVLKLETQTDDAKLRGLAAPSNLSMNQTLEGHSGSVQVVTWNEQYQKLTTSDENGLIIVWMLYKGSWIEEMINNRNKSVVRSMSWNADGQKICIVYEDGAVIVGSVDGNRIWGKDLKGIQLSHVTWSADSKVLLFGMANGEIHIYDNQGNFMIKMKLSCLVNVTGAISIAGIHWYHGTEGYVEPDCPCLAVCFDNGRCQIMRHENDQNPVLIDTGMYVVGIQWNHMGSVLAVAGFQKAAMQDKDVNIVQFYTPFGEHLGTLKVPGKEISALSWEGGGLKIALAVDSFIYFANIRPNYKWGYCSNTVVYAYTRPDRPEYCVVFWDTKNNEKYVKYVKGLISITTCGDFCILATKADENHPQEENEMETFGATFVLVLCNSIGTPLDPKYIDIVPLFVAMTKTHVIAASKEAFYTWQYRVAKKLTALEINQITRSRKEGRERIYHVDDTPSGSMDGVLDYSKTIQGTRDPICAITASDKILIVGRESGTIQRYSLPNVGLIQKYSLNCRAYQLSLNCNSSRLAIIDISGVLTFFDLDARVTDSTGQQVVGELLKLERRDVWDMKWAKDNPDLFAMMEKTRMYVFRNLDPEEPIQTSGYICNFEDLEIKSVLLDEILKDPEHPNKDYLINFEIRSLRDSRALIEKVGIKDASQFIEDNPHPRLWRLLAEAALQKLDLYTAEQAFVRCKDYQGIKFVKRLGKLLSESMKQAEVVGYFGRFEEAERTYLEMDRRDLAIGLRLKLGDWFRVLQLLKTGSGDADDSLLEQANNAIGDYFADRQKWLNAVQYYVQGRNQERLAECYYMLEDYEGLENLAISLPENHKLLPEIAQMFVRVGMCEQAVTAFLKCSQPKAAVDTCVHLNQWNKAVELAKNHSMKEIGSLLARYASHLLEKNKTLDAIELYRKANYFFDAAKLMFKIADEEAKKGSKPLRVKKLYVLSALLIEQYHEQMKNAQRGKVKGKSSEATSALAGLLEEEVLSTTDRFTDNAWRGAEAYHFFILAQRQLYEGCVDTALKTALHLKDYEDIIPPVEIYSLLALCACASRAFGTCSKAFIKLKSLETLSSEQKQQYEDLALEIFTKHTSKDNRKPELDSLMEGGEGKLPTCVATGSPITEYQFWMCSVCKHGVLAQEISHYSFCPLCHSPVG

[6] = target: T6, IFT139 (TTC21B/THM1) with N-terminal mCherry tag (human) (UniProt Q7Z4L5); assay: as above
T6 sequence: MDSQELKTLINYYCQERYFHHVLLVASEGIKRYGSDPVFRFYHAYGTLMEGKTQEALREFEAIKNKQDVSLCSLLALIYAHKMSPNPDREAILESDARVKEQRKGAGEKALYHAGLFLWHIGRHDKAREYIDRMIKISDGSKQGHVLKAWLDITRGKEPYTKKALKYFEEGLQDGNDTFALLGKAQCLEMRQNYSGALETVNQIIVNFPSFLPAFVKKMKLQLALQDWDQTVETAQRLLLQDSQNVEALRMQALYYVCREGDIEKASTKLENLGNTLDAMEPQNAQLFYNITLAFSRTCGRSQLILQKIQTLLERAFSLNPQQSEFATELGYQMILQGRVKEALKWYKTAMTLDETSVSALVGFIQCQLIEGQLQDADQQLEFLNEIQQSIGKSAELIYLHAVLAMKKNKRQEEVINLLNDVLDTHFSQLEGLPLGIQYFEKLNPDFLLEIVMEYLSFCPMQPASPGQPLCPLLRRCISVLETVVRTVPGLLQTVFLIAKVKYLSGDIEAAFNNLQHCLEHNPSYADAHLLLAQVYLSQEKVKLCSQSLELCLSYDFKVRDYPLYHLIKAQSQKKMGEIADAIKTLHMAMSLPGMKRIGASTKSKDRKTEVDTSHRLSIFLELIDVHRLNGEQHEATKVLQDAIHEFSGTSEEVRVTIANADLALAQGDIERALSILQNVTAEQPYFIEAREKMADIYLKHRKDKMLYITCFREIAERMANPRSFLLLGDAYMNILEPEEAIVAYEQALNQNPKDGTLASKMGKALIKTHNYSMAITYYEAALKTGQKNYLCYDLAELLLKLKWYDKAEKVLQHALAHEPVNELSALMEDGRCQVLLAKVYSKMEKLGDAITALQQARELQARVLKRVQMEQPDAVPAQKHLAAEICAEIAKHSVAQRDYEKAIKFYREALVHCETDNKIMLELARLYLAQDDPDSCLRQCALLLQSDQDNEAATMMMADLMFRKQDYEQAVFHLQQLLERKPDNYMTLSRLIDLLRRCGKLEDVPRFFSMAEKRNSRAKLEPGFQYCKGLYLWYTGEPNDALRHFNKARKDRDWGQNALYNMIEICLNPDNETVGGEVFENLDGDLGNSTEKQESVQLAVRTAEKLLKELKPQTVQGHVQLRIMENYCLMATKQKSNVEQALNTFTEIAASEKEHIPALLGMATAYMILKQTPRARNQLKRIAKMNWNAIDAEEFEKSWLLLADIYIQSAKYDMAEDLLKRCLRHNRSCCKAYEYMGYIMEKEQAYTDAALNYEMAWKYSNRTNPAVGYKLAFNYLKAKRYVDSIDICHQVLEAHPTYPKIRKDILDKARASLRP

binding [1]: binds
binding [2]: binds
binding [3]: binds
Molecule: the rest IFT-A components (IFT144, IFT140, IFT139, IFT122, IFT121) (from UniProt Q8NEZ3-1 1-1342; Q96RY7-1 1-1462; Q7Z4L5 1-1316; Q9HBG6 1-1241; Q9P2L0 1-1181) (complex)

binding [4]: binds
binding [3]: binds
Molecule: IFT-A subunits without IFT140 and IFT43 (IFT144, IFT139, IFT122, IFT121) (from UniProt Q8NEZ3-1 1-1342; Q7Z4L5 1-1316; Q9HBG6 1-1241; Q9P2L0 1-1181) (complex)

binding [5]: binds
Molecule: human IFT-A complex (IFT144, IFT140, IFT139, IFT122, IFT121, IFT43) (from UniProt Q8NEZ3-1 1-1342; Q96RY7-1 1-1462; Q7Z4L5 1-1316; Q9HBG6 1-1241; Q9P2L0 1-1181; Q96FT9-1 1-208)

binding (IFT121 (WDR35) (human)): binds
binding [6]: binds
B1: IFT43 (GFP tag cleaved) (protein, UniProt Q96FT9-1 1-208)
chain: T1 sequence with R174W

From publication PMC10066299
